This is one part of the list. Many values rest on one well or one pass, so single values are uncertain.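 The apoptosis fraction was the count of cleaved-PARP antibody-stained nuclei relative to all DNA-stained nuclei, imaged in 1,536-well plates. Screening doses were set so most cells survived, and baseline and induced cleaved-PARP levels vary greatly across cell lines.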
What follows are compounds tested on WM1716 (assay: cleaved PARP positive nuclei fraction relative to DMSO control; melanoma cells; higher = more apoptosis). Settings: library dose: low library concentration; 72 h.
For `CO[C@H]1C[C@@H]2CC[C@@H](C)[C@@](O)(O2)C(=O)C(=O)N2CCCC[C@H]2C(=O)O[C@H]([C@H](C)C[C@@H]2CC[C@@H](OCCO)[C@H](OC)C2)CC(=O)[C@H](C)/C=C(\C)[C@@H](O)[C@@H](OC)C(=O)[C@H](C)C[C@H](C)/C=C/C=C/C=C/1C` [everolimus] + CO[C@@H]1[C@H](N(C)C(=O)c2ccccc2)C[C@H]2O[C@]1(C)n1c3ccccc3c3c4c(c5c6ccccc6n2c5c31)C(=O)NC4 [Midostaurin] (first compound 0.02 µM, partner dose 0.08 µM), the “cleaved PARP positive nuclei fraction” value was 374%.
With `CO[C@H]1C[C@@H]2CC[C@@H](C)[C@@](O)(O2)C(=O)C(=O)N2CCCC[C@H]2C(=O)O[C@H]([C@H](C)C[C@@H]2CC[C@@H](OCCO)[C@H](OC)C2)CC(=O)[C@H](C)/C=C(\C)[C@@H](O)[C@@H](OC)C(=O)[C@H](C)C[C@H](C)/C=C/C=C/C=C/1C` [everolimus] + CCN(CC)CCCCNc1ncc2cc(-c3cc(OC)cc(OC)c3)c(NC(=O)NC(C)(C)C)nc2n1 [PD173074] (first compound 0.02 µM, partner dose 0.1 µM) the “cleaved PARP positive nuclei fraction” value was 66.3%.
`CO[C@H]1C[C@@H]2CC[C@@H](C)[C@@](O)(O2)C(=O)C(=O)N2CCCC[C@H]2C(=O)O[C@H]([C@H](C)C[C@@H]2CC[C@@H](OCCO)[C@H](OC)C2)CC(=O)[C@H](C)/C=C(\C)[C@@H](O)[C@@H](OC)C(=O)[C@H](C)C[C@H](C)/C=C/C=C/C=C/1C` [everolimus] + Cc1cc(N2CCOCC2)cc2[nH]c(-c3c(NC[C@@H](O)c4cccc(Cl)c4)cc[nH]c3=O)nc12 [BMS536924] (first compound 0.02 µM, partner dose 0.2 µM) was tested, and the “cleaved PARP positive nuclei fraction” value was 64.1%.
`CO[C@H]1C[C@@H]2CC[C@@H](C)[C@@](O)(O2)C(=O)C(=O)N2CCCC[C@H]2C(=O)O[C@H]([C@H](C)C[C@@H]2CC[C@@H](OCCO)[C@H](OC)C2)CC(=O)[C@H](C)/C=C(\C)[C@@H](O)[C@@H](OC)C(=O)[C@H](C)C[C@H](C)/C=C/C=C/C=C/1C` [everolimus] + Cn1cc(/C=C2\C(=O)Nc3cccnc32)c2ccccc21 [GW441756] (first compound 0.02 µM, partner dose 0.4 µM) was tested, and the “cleaved PARP positive nuclei fraction” value was 186%.
In the case of `CO[C@H]1C[C@@H]2CC[C@@H](C)[C@@](O)(O2)C(=O)C(=O)N2CCCC[C@H]2C(=O)O[C@H]([C@H](C)C[C@@H]2CC[C@@H](OCCO)[C@H](OC)C2)CC(=O)[C@H](C)/C=C(\C)[C@@H](O)[C@@H](OC)C(=O)[C@H](C)C[C@H](C)/C=C/C=C/C=C/1C` [everolimus] + Cn1c(Nc2ccc(C(F)(F)F)cc2)nc2cc(Oc3ccnc(-c4ncc(C(F)(F)F)[nH]4)c3)ccc21 [CHIR265] (first compound 0.02 µM, partner dose 0.08 µM), the “cleaved PARP positive nuclei fraction” value is reported as 231%.
For `CO[C@H]1C[C@@H]2CC[C@@H](C)[C@@](O)(O2)C(=O)C(=O)N2CCCC[C@H]2C(=O)O[C@H]([C@H](C)C[C@@H]2CC[C@@H](OCCO)[C@H](OC)C2)CC(=O)[C@H](C)/C=C(\C)[C@@H](O)[C@@H](OC)C(=O)[C@H](C)C[C@H](C)/C=C/C=C/C=C/1C` [everolimus] + COc1cc2ncnc(Nc3ccc(Oc4ccccc4)cc3)c2cc1OC [SrcI1] (first compound 0.02 µM, partner dose 2 µM), the “cleaved PARP positive nuclei fraction” value was 130%.
`CO[C@H]1C[C@@H]2CC[C@@H](C)[C@@](O)(O2)C(=O)C(=O)N2CCCC[C@H]2C(=O)O[C@H]([C@H](C)C[C@@H]2CC[C@@H](OCCO)[C@H](OC)C2)CC(=O)[C@H](C)/C=C(\C)[C@@H](O)[C@@H](OC)C(=O)[C@H](C)C[C@H](C)/C=C/C=C/C=C/1C` [everolimus] + CN(NC(=O)CC(=O)NN(C)C(=S)c1ccccc1)C(=S)c1ccccc1 [STA4783] (first compound 0.02 µM, partner dose 0.006 µM) was tested, and the “cleaved PARP positive nuclei fraction” value was 350%.
With `CO[C@H]1C[C@@H]2CC[C@@H](C)[C@@](O)(O2)C(=O)C(=O)N2CCCC[C@H]2C(=O)O[C@H]([C@H](C)C[C@@H]2CC[C@@H](OCCO)[C@H](OC)C2)CC(=O)[C@H](C)/C=C(\C)[C@@H](O)[C@@H](OC)C(=O)[C@H](C)C[C@H](C)/C=C/C=C/C=C/1C` [everolimus] + CCCCCCCCCCCC1=C(O)C(=O)C=C(O)C1=O [Embelin] (first compound 0.02 µM, partner dose 1.2 µM) the “cleaved PARP positive nuclei fraction” value was 225%.
For `CO[C@H]1C[C@@H]2CC[C@@H](C)[C@@](O)(O2)C(=O)C(=O)N2CCCC[C@H]2C(=O)O[C@H]([C@H](C)C[C@@H]2CC[C@@H](OCCO)[C@H](OC)C2)CC(=O)[C@H](C)/C=C(\C)[C@@H](O)[C@@H](OC)C(=O)[C@H](C)C[C@H](C)/C=C/C=C/C=C/1C` [everolimus] + COC(=O)c1sccc1S(=O)(=O)Nc1ccc(Nc2ccccc2)cc1OC [GSK0660] (first compound 0.02 µM, partner dose 1 µM), the “cleaved PARP positive nuclei fraction” value was 22.1%.
`CO[C@H]1C[C@@H]2CC[C@@H](C)[C@@](O)(O2)C(=O)C(=O)N2CCCC[C@H]2C(=O)O[C@H]([C@H](C)C[C@@H]2CC[C@@H](OCCO)[C@H](OC)C2)CC(=O)[C@H](C)/C=C(\C)[C@@H](O)[C@@H](OC)C(=O)[C@H](C)C[C@H](C)/C=C/C=C/C=C/1C` [everolimus] + C[C@@H]1CCN(C(=O)CC#N)C[C@@H]1N(C)c1ncnc2[nH]ccc12 [CP690550] (first compound 0.02 µM, partner dose 1 µM) was tested, and the “cleaved PARP positive nuclei fraction” value was 44%.
For `CO[C@H]1C[C@@H]2CC[C@@H](C)[C@@](O)(O2)C(=O)C(=O)N2CCCC[C@H]2C(=O)O[C@H]([C@H](C)C[C@@H]2CC[C@@H](OCCO)[C@H](OC)C2)CC(=O)[C@H](C)/C=C(\C)[C@@H](O)[C@@H](OC)C(=O)[C@H](C)C[C@H](C)/C=C/C=C/C=C/1C` [everolimus] + Oc1cc(-c2nc(-c3ccccc3)[nH]c2-c2ccncc2)ccc1Cl [L779450] (first compound 0.02 µM, partner dose 0.2 µM), the “cleaved PARP positive nuclei fraction” value was 383%.
`CO[C@H]1C[C@@H]2CC[C@@H](C)[C@@](O)(O2)C(=O)C(=O)N2CCCC[C@H]2C(=O)O[C@H]([C@H](C)C[C@@H]2CC[C@@H](OCCO)[C@H](OC)C2)CC(=O)[C@H](C)/C=C(\C)[C@@H](O)[C@@H](OC)C(=O)[C@H](C)C[C@H](C)/C=C/C=C/C=C/1C` [everolimus] + Cn1cncc1[C@@](N)(c1ccc(Cl)cc1)c1ccc2c(c1)c(-c1cccc(Cl)c1)cc(=O)n2C [tipifarnib] (first compound 0.02 µM, partner dose 0.01 µM) was tested, and the “cleaved PARP positive nuclei fraction” value was 91%.
`CO[C@H]1C[C@@H]2CC[C@@H](C)[C@@](O)(O2)C(=O)C(=O)N2CCCC[C@H]2C(=O)O[C@H]([C@H](C)C[C@@H]2CC[C@@H](OCCO)[C@H](OC)C2)CC(=O)[C@H](C)/C=C(\C)[C@@H](O)[C@@H](OC)C(=O)[C@H](C)C[C@H](C)/C=C/C=C/C=C/1C` [everolimus] + NCC(=O)Nc1ccc(-n2nc(C(F)(F)F)cc2-c2ccc3c(ccc4ccccc43)c2)cc1 [OSU03012] (first compound 0.02 µM, partner dose 1 µM) was tested, and the “cleaved PARP positive nuclei fraction” value was 183%.
With `CO[C@H]1C[C@@H]2CC[C@@H](C)[C@@](O)(O2)C(=O)C(=O)N2CCCC[C@H]2C(=O)O[C@H]([C@H](C)C[C@@H]2CC[C@@H](OCCO)[C@H](OC)C2)CC(=O)[C@H](C)/C=C(\C)[C@@H](O)[C@@H](OC)C(=O)[C@H](C)C[C@H](C)/C=C/C=C/C=C/1C` [everolimus] + NC(=O)Nc1cc(-c2cccc(F)c2)sc1C(=O)N[C@H]1CCCNC1 [AZD7762] (first compound 0.02 µM, partner dose 0.02 µM) the “cleaved PARP positive nuclei fraction” value was 256%.
In the case of `CO[C@H]1C[C@@H]2CC[C@@H](C)[C@@](O)(O2)C(=O)C(=O)N2CCCC[C@H]2C(=O)O[C@H]([C@H](C)C[C@@H]2CC[C@@H](OCCO)[C@H](OC)C2)CC(=O)[C@H](C)/C=C(\C)[C@@H](O)[C@@H](OC)C(=O)[C@H](C)C[C@H](C)/C=C/C=C/C=C/1C` [everolimus] + O=C(Nc1ccccc1)c1cc([N+](=O)[O-])ccc1Cl [GW9662] (first compound 0.02 µM, partner dose 2 µM), the “cleaved PARP positive nuclei fraction” value is reported as 309%.
For `CO[C@H]1C[C@@H]2CC[C@@H](C)[C@@](O)(O2)C(=O)C(=O)N2CCCC[C@H]2C(=O)O[C@H]([C@H](C)C[C@@H]2CC[C@@H](OCCO)[C@H](OC)C2)CC(=O)[C@H](C)/C=C(\C)[C@@H](O)[C@@H](OC)C(=O)[C@H](C)C[C@H](C)/C=C/C=C/C=C/1C` [everolimus] + O=C1NC(=O)/C(=C/c2ccc(-c3ccc(F)cc3O)o2)S1 [AS252424] (first compound 0.02 µM, partner dose 1 µM), the “cleaved PARP positive nuclei fraction” value was 68.7%.
For `O=C(O)[C@@H]1[O][Sb](=[O])([O][Sb]2(=[O])[O][C@H]([C@H](O)CO)[C@H](O)[C@H](C(=O)O)[O]2)[O][C@H]([C@H](O)CO)[C@@H]1O` (stereo partly drawn) [stibogluconate] + Clc1ccc(Nc2nnc(Cc3ccncc3)c3ccccc23)cc1 [vatalanib] (first compound 2 µM, partner dose 2 µM), the “cleaved PARP positive nuclei fraction” value was 70.6%.
For `CO[C@H]1C[C@@H]2CC[C@@H](C)[C@@](O)(O2)C(=O)C(=O)N2CCCC[C@H]2C(=O)O[C@H]([C@H](C)C[C@@H]2CC[C@@H](OCCO)[C@H](OC)C2)CC(=O)[C@H](C)/C=C(\C)[C@@H](O)[C@@H](OC)C(=O)[C@H](C)C[C@H](C)/C=C/C=C/C=C/1C` [everolimus] + O=C(CCCCCCC(=O)Nc1ccccc1)NO [vorinostat] (first compound 0.02 µM, partner dose 0.08 µM), the “cleaved PARP positive nuclei fraction” value was 80.8%.

Reference: the supplement of paper PMC4604168 (melanoma cell lines)
